# The other results are listed elsewhere or left out.
# Biological target: T1, OsSMF1 (Oryza sativa, UniProt Q6ZLB0 1-436)
# T1 sequence: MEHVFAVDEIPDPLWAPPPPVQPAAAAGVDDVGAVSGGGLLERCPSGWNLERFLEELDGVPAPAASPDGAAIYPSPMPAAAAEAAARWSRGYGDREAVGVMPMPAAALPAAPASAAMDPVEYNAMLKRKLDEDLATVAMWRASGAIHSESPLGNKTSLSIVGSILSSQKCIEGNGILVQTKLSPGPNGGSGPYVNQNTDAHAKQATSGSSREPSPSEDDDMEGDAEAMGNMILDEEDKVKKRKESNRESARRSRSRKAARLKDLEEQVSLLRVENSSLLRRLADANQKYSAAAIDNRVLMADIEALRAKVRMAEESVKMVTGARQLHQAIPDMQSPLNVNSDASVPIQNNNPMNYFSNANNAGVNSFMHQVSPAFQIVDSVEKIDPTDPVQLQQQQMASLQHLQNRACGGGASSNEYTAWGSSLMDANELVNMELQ
# Assay: protein-binding microarray (RPBM); PBS, 2% BSA, 51.3 ng/ul salmon testes DNA, 50 uM zinc acetate, 200 nM TF, 25 C, 1 h; high values mean tight binding
# Conditions: protein: recombinant; tags: N-terminal polyhistidine and DsRed monomer fusion (pET32a); chain copies: 2; label: CyDye5-dUTP incorporated in the synthesized complementary strand; 3' TTTTT single-stranded linker to array surface; dsDNA, one strand shown
# Summary of the method: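 Transcription factors, each fused N-terminally to a polyhistidine tag and DsRed, were expressed in E. coli BL21-CodonPlus and purified on Ni–NTA. A custom Agilent array was made double-stranded by primer extension with Cy5-dUTP and blocked with 2% BSA. It was incubated with 200 nM protein in PBS, 2% BSA, salmon testes DNA and 50 µM zinc acetate at 25 °C for 1 h, then washed. The binding signal is per-feature fluorescence intensity (arbitrary units) read on an Axon 4000B scanner.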
row,Sequence,binding signal
1,TGGAAGCCTCGTGAATATATAAAGCCCACGTGTCCACGGCCGGAGTCACCTAGTGCAG,11500 fluorescence intensity (a.u.)
2,GTAGTACGACACGTACACCTGTTGGATTGTTCTTCTGTCTCGGAGTCACCTAGTGCAG,7370 fluorescence intensity (a.u.)
3,TTGTATAACTATGTGTATATGTGTATGGTTATTAAGCAAACGGAGTCACCTAGTGCAG,10500 fluorescence intensity (a.u.)
4,TCCTCCCGCACCTCGGCGTACCTCACCCGCCTCCGGACGACGGAGTCACCTAGTGCAG,3430 fluorescence intensity (a.u.)
5,TATTTTCAAATTAATTGAAAGGAGGGAGGCAAAGTGGACTCGGAGTCACCTAGTGCAG,26100 fluorescence intensity (a.u.)
6,AAGCTCCCCGGCCAGGCCGCCATCGGCCACGTGAGGTACTCGGAGTCACCTAGTGCAG,4540 fluorescence intensity (a.u.)
7,AAAGGCTACGTCCTCAGGGAAGGATACATTCTTACCTAGCCGGAGTCACCTAGTGCAG,3600 fluorescence intensity (a.u.)
8,ATTTGCATCAACAAATTTGCTTCGAACATTCTCCCTGATACGGAGTCACCTAGTGCAG,15900 fluorescence intensity (a.u.)
9,AGTCAGAGACAATGATGTCTTGCTGACATATGGGTCATCGCGGAGTCACCTAGTGCAG,3310 fluorescence intensity (a.u.)
10,CTCAGAATGCACACAACGGAACGAAGCAGTCACGCTCGTGCGGAGTCACCTAGTGCAG,3560 fluorescence intensity (a.u.)
11,AAGTCCGATTCGTGAGTCACAGATGTTGACTCGCCGAAAACGGAGTCACCTAGTGCAG,5350 fluorescence intensity (a.u.)
12,AAGGTTAGTGATTAGCAATAGTGTACTCCGCCTCGTCACACGGAGTCACCTAGTGCAG,3420 fluorescence intensity (a.u.)
13,CTTTGTTATTTTGAGTTCGGTCGCTGTAACGCAGGCTGTGCGGAGTCACCTAGTGCAG,9280 fluorescence intensity (a.u.)
14,AGAACACGTGTGTGCTCCTCTTTTATCTCCTTGGGCCTTTCGGAGTCACCTAGTGCAG,4830 fluorescence intensity (a.u.)
15,CAAAGCGATCGAGGACGGCCAGATCATCACTCAACTTAGCCGGAGTCACCTAGTGCAG,5890 fluorescence intensity (a.u.)
16,CTCCTCCACGTGACCCGCGCCACCACCACCACCACCACCGCGGAGTCACCTAGTGCAG,3540 fluorescence intensity (a.u.)
17,CTGGGTTTTATCATATCTGACCGTATGAGTAGTTGGCATTCGGAGTCACCTAGTGCAG,4220 fluorescence intensity (a.u.)
18,TGCCGTCGCTGCCGCCGCAGCCCGTCCAGCGCACCGGGTACGGAGTCACCTAGTGCAG,31500 fluorescence intensity (a.u.)
19,GCTGTTTTGCTCCCTGCACATTAGCTGTCCATTGGCAGCGCGGAGTCACCTAGTGCAG,3180 fluorescence intensity (a.u.)
20,TAGGTAGCATTTTCTGTAGTTGCAGCTCAAGTAAGGTAATCGGAGTCACCTAGTGCAG,3520 fluorescence intensity (a.u.)
21,TATTAAGGTCCAGTAGAAAGCACGTGTCTTGCTTACGAGACGGAGTCACCTAGTGCAG,3410 fluorescence intensity (a.u.)
22,CACCGATGATGGCCGGTCGACTAGTTTGATTCGTTCCGATCGGAGTCACCTAGTGCAG,3350 fluorescence intensity (a.u.)
23,AATTCAGAATGTGTCATGCTCATCTTCAGAAATGATTCATCGGAGTCACCTAGTGCAG,5970 fluorescence intensity (a.u.)
24,GTGACATATAAATAAGACATCACAATAGAAACTACACTTCCGGAGTCACCTAGTGCAG,3420 fluorescence intensity (a.u.)
25,TACAGTTCTACTACTGCTATACCACTGATGAATCATCTCACGGAGTCACCTAGTGCAG,4460 fluorescence intensity (a.u.)
26,TGGCTCTCTTATCTCTTCATCTATTTTCATTCCACGTAAGCGGAGTCACCTAGTGCAG,6510 fluorescence intensity (a.u.)
27,TAGGAGTAAAGAAAATCCCTGTTTAATTAACGCCAAACTTCGGAGTCACCTAGTGCAG,24400 fluorescence intensity (a.u.)

# Single entries from the entries so far:
# GCTGTTTTGCTCCCTGCACATTAGCTGTCCATTGGCAGCGCGGAGTCACCTAGTGCAG | binding signal: 3180 fluorescence intensity (a.u.)
# TATTTTCAAATTAATTGAAAGGAGGGAGGCAAAGTGGACTCGGAGTCACCTAGTGCAG | binding signal: 26100 fluorescence intensity (a.u.)
# TGCCGTCGCTGCCGCCGCAGCCCGTCCAGCGCACCGGGTACGGAGTCACCTAGTGCAG | binding signal: 31500 fluorescence intensity (a.u.)

# (continued)

row,Sequence,binding signal
1,GCAGGGCAACGCAGCATGATTGATTTCGTCATTCTCCTCTCGGAGTCACCTAGTGCAG,4060 fluorescence intensity (a.u.)
2,AATTCTAAGAAATTTCATATAGGATTTATGGATAGCTATTCGGAGTCACCTAGTGCAG,20200 fluorescence intensity (a.u.)
3,AAATTGCTTTTCATTTCACTTCACAATGGGCACGTACGCCCGGAGTCACCTAGTGCAG,4280 fluorescence intensity (a.u.)
4,ACGGCTGCCACGTTGGACCCGCGCGGGCCACTCACCCGCTCGGAGTCACCTAGTGCAG,12500 fluorescence intensity (a.u.)
5,ACACTATGATTATAATATATTTACATGTGTGAATTGTTTACGGAGTCACCTAGTGCAG,3640 fluorescence intensity (a.u.)
6,GCTCCCGCACCGCATCCGCCAACGAGGAGGCCGGGACTGTCGGAGTCACCTAGTGCAG,3150 fluorescence intensity (a.u.)
7,AGCTGGGATGGTGACGAGGATTGATTCCCATCGGTGATCCCGGAGTCACCTAGTGCAG,5890 fluorescence intensity (a.u.)
8,CTTGAGCCTAATTGCTCCATGATTTGACATGTTGTGCTATCGGAGTCACCTAGTGCAG,3470 fluorescence intensity (a.u.)
9,TCCTTGACAGTTCTTGCATTGTATGTGTCAGCTCATGTGTCGGAGTCACCTAGTGCAG,3900 fluorescence intensity (a.u.)
10,GGAGTAAGCCAATTGGACGATCCGTGACGCATCGATCGGTCGGAGTCACCTAGTGCAG,4690 fluorescence intensity (a.u.)
11,TCGACCTGCCAACATCAACATGCAATCGGCCTCCTGTCCTCGGAGTCACCTAGTGCAG,3890 fluorescence intensity (a.u.)
12,AGAAATTTGCATTCTAAGGTACAAGTCAGCAATCAGCCCACGGAGTCACCTAGTGCAG,4460 fluorescence intensity (a.u.)
13,AGGTGCGGGGCGTCCGGCCGCCACGTGGCGGGCGAACCCACGGAGTCACCTAGTGCAG,4730 fluorescence intensity (a.u.)
14,ACCAATCCTACCACCACGTAGTACACACACACTACACACACGGAGTCACCTAGTGCAG,4720 fluorescence intensity (a.u.)
15,AACGCCACCATCTTCCTCAGCCGTAGCCCGTAGGTCGACGCGGAGTCACCTAGTGCAG,22600 fluorescence intensity (a.u.)
16,CCAAGCCACCACGCCACCCAAACCGCGATTTCTGATCGATCGGAGTCACCTAGTGCAG,3250 fluorescence intensity (a.u.)
17,GCCACCATCGTCATCCATTCCCTCATCAGTGAGAGAGCTACGGAGTCACCTAGTGCAG,3710 fluorescence intensity (a.u.)
18,TAATCCTTATGTAGGATCGGGATCCTACGTAAGCTCTACCCGGAGTCACCTAGTGCAG,6660 fluorescence intensity (a.u.)
19,ACGGATTGGCCTTGTGCCGTGCTGCTACAGTACGTGTGATCGGAGTCACCTAGTGCAG,3360 fluorescence intensity (a.u.)
20,TGGGTGTGACACATCTTAATACATGAATCTGAATATACATCGGAGTCACCTAGTGCAG,3650 fluorescence intensity (a.u.)
21,CGCGGAGCAGCGGATGACGACGTGGACTCAGCTGTCGTGCCGGAGTCACCTAGTGCAG,7230 fluorescence intensity (a.u.)
22,GAGAGAGAGAAAGAGGGGAAGGGGAGATATGACAGGTGGGCGGAGTCACCTAGTGCAG,3520 fluorescence intensity (a.u.)
23,ACTAGACTCGTGTTATCGTTGCCACATGACCAAGCCCCACCGGAGTCACCTAGTGCAG,4200 fluorescence intensity (a.u.)
24,TGAAATGAGGCTGATGTCATGATTAATTAGTCCGCATATTCGGAGTCACCTAGTGCAG,7840 fluorescence intensity (a.u.)
25,CTGATCCTCGCTGACACCTCGGTCAGCATGGCAGGAGAGTCGGAGTCACCTAGTGCAG,4020 fluorescence intensity (a.u.)
26,AGCGCCGTATAAACACCCCTCGGTTCGCGTTTTGGTCGCGCGGAGTCACCTAGTGCAG,3280 fluorescence intensity (a.u.)
27,CGCCATGGGCGACATCGACATCTACAGCCTCTACACTCCGCGGAGTCACCTAGTGCAG,44200 fluorescence intensity (a.u.)

# Reference: article PMC7819943, “Rice protein-binding microarrays: a tool to detect cis-acting elements near promoter regions in rice”
